Results published in the supplement of paper PMC10849652.
The list shows a part of the results.

The chains behind the UniProt entries cited, without tags or fusion partners. Where a name states a change or a piece, a line headed by the entry shows the natural chain unless it says otherwise.
UniProt Q86UE8, whole entry, looked up: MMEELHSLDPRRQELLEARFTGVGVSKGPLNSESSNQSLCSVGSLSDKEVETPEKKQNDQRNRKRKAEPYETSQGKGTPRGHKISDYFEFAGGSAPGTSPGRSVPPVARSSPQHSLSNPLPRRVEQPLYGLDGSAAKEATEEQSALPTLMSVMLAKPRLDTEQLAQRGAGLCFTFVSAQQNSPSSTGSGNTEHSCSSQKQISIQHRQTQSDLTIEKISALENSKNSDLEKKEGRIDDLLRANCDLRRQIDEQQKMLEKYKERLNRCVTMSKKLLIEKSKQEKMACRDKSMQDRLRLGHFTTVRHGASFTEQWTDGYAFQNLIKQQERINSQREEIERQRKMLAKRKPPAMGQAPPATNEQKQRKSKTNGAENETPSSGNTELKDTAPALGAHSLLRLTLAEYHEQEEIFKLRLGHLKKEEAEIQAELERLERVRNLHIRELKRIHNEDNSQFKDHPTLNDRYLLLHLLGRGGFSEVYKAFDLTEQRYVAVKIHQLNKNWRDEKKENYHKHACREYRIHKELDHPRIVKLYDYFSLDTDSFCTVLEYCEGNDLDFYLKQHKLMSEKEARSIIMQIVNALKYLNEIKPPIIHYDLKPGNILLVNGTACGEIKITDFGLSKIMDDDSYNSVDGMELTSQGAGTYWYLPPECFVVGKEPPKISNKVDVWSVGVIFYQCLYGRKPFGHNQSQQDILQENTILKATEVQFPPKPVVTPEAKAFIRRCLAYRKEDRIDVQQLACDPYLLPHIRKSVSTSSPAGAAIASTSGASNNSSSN
UniProt Q9Y4G6: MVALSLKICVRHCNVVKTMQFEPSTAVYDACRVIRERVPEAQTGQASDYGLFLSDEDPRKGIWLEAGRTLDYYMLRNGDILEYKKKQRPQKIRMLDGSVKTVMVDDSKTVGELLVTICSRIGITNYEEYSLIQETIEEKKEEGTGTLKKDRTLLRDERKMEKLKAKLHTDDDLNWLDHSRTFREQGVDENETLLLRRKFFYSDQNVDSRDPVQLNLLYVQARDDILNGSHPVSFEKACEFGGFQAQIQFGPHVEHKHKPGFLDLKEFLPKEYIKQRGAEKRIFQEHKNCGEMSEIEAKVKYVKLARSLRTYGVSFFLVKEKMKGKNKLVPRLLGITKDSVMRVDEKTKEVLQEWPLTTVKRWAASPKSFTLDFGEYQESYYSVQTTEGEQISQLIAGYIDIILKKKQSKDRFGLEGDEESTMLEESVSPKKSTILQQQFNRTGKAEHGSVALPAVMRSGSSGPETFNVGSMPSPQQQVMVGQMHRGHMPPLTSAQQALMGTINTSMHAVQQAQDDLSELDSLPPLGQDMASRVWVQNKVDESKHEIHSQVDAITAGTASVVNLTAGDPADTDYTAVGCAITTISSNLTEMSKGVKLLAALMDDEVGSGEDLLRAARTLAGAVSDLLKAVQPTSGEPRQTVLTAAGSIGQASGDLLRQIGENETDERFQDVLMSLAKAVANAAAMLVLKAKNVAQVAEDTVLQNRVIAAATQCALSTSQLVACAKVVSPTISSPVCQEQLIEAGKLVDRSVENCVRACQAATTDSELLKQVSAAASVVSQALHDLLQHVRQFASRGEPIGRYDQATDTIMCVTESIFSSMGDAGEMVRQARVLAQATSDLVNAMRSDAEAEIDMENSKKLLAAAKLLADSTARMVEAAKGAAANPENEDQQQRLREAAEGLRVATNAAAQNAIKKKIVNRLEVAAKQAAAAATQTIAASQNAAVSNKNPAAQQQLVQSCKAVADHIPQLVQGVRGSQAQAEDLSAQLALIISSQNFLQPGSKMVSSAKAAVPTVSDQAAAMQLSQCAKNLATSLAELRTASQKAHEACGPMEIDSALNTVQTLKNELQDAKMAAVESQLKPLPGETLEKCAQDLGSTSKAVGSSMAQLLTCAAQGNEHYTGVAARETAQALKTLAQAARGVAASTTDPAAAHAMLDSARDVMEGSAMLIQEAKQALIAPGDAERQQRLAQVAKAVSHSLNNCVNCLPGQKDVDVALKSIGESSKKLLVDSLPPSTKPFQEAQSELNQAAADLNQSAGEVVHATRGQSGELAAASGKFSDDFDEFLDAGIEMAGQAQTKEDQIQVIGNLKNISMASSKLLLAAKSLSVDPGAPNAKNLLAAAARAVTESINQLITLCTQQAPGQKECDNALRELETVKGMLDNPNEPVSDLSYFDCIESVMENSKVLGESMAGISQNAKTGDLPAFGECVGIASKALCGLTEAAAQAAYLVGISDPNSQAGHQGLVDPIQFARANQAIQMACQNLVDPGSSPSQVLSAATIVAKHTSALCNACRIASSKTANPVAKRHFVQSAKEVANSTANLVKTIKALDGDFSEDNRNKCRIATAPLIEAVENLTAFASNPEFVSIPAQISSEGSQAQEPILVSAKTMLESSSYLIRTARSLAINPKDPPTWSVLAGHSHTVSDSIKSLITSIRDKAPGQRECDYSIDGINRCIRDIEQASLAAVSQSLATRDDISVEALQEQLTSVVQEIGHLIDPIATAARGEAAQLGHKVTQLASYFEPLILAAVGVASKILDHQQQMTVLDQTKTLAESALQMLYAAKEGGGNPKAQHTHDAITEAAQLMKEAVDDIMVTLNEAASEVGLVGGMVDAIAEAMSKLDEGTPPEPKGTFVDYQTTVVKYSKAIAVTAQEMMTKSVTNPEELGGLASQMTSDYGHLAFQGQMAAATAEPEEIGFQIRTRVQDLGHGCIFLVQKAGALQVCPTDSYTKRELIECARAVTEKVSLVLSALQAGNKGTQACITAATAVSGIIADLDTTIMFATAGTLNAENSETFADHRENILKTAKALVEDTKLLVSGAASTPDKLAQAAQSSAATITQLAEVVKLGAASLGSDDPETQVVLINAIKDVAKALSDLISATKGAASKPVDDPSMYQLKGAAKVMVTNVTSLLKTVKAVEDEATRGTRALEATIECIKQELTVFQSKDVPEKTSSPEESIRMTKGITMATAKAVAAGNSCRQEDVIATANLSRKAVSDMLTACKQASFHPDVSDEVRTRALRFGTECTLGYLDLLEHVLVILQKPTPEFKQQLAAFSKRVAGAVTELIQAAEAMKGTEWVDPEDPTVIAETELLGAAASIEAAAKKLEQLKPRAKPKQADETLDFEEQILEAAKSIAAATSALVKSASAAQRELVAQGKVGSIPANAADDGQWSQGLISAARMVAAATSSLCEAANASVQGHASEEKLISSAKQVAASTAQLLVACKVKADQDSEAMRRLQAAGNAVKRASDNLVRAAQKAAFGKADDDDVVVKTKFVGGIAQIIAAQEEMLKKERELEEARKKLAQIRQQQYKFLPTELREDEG
UniProt O14925: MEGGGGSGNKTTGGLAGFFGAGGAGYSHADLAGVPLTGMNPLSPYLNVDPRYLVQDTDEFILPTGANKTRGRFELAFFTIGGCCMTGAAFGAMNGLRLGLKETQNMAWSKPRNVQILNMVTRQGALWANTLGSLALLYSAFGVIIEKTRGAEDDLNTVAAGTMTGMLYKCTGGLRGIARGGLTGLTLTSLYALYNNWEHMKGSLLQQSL
UniProt Q01085: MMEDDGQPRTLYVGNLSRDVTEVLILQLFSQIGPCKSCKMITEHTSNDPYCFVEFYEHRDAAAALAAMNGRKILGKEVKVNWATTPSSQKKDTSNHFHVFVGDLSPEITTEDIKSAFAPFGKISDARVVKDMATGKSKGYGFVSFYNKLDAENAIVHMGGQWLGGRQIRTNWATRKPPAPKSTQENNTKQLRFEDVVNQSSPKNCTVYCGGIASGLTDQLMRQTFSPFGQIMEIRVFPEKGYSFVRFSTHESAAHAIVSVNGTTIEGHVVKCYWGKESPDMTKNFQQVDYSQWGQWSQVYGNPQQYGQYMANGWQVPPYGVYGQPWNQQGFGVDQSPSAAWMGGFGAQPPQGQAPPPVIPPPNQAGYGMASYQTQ
UniProt Q9P016: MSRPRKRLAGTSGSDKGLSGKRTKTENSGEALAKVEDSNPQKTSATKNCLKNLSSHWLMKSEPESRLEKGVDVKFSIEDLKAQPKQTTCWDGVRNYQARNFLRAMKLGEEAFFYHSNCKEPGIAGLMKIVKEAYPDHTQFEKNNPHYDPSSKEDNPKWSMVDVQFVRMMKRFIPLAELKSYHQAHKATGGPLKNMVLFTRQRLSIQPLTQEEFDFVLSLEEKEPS
UniProt O43422: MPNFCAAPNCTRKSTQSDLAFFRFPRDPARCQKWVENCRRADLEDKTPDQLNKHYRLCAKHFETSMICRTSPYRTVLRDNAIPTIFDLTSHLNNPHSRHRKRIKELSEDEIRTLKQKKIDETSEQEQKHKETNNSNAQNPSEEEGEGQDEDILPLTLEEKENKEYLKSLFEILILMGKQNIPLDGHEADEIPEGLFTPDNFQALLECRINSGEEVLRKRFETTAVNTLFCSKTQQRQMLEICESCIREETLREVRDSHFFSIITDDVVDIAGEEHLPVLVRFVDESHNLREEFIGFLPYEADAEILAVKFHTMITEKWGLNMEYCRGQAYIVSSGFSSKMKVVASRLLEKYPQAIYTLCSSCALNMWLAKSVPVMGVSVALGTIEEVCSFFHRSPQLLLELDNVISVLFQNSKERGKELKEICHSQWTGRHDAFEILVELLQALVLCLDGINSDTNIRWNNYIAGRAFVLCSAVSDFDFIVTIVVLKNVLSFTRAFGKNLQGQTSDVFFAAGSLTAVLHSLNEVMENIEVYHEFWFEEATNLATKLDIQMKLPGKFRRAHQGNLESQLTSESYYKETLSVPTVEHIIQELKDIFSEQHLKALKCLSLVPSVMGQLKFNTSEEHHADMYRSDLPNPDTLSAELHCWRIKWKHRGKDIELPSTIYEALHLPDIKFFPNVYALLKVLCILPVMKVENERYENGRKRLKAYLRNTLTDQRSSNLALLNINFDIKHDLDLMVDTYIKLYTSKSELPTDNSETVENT
UniProt P17152: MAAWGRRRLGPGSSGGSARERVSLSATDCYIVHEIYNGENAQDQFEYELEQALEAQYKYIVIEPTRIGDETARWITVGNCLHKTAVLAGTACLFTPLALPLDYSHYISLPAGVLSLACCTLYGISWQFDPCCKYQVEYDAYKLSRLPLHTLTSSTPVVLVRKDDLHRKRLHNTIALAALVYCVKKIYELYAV
UniProt Q96FV9: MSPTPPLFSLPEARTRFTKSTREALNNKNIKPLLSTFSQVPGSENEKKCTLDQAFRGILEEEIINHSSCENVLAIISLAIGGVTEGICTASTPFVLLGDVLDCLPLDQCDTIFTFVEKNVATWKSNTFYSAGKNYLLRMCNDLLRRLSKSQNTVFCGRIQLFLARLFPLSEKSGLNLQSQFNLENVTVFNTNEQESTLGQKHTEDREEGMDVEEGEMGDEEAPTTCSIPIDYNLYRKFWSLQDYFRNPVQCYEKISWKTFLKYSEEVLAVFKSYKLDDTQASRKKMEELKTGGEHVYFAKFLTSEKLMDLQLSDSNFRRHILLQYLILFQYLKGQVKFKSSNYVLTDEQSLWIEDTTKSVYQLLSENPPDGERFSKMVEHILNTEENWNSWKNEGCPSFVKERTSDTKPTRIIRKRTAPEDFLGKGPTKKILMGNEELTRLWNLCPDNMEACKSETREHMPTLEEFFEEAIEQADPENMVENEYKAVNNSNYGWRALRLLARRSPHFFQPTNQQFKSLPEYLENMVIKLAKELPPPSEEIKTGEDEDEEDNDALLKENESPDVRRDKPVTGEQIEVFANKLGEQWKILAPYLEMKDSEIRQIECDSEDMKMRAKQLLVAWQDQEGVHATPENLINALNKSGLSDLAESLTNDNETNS
UniProt Q9BVC6: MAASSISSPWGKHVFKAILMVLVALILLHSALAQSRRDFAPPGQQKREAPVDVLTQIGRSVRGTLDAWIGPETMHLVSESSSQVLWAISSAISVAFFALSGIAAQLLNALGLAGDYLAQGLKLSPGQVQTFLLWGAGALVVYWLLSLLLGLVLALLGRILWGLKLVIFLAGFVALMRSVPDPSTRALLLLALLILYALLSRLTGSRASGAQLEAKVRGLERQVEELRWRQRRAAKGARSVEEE
UniProt Q96B77: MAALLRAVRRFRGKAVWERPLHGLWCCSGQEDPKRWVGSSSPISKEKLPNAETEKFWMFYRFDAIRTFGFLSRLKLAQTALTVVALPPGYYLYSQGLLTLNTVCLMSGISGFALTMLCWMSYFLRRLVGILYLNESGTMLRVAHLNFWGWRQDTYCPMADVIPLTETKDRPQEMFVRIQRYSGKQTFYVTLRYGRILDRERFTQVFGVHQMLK
UniProt Q9P0S9: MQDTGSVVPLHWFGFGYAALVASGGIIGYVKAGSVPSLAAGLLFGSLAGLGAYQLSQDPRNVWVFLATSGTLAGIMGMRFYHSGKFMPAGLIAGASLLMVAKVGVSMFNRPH
UniProt Q86XR7, whole entry, looked up: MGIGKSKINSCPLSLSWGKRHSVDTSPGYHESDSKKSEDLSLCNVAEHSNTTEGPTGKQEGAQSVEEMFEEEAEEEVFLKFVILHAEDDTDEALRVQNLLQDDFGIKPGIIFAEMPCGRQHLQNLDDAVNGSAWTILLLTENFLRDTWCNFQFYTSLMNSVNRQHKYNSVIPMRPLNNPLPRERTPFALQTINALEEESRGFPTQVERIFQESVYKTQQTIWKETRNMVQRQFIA

Experiments:
Experiment in all cases: log2 fold change, soluble protein after heating vs DMSO (PISA); higher = thermal stabilisation; K562 lysate, 10 uM; active = over 0.2 and 3.5 SD of the protein, either way, in both replicates (recomputed)
erlotinib = compound: C#Cc1cccc(Nc2ncnc3cc(OCCOC)c(OCCOC)cc23)c1 [erlotinib]
Procedure, shortened: (§1)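 Following dounce homogenisation of K562 pellets in PBS pH 7.4 with 1 mM MgCl2, crude extract at 1 mg/mL protein was incubated for 30 min with 10 μM compound. Aliquots were then heated for 3 min over 48°C-58°C and pooled, NP-40 was added to 0.5% at 4°C, and soluble protein was recovered as the supernatant at 21,000xg for 90 min. Channel-sum-equalised TMTpro 16plex LC-MS/MS quantified this protein. Each value, from duplicates, is a log-two fold change in thermal stability relative to solvent controls.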

[1] = compound: C/C(=N\NC(=O)C1=CC(=CC=C1)S(=O)(=O)N2CCOCC2)/C3=C(C=CC(=C3)Cl)O
Procedure, shortened: as §1

[2] = compound: C1=CC(=CC=C1C2=NC3=C(N2)C=C(C=C3)C(=O)N)OC4=CC=C(C=C4)Cl
Procedure, shortened: as §1

[3] = compound: C1=CC2=C(C=CC(=C2)/C=C\3/C(=O)NC(=NCC4=CC=CS4)S3)N=C1
Procedure, shortened: as §1

[4] = compound: C1=CC2=NC=CN=C2C=C1/C=C/3\C(=O)NC(=O)S3
Procedure, shortened: as §1

[5] = compound: C1=CC=C(C=C1)C2=NC(=C(N2)C3=CC=NC=C3)C4=CC(=C(C=C4)Cl)O
Procedure, shortened: as §1

[6] = compound: C1=CC=C2C(=C1)C3=NNC4=CC=CC(=C43)C2=O
Procedure, shortened: as §1

[7] = compound: C1CCN(C1)C(=O)NC2=CC=CC(=C2)NC3=NC=C(C(=N3)NCCC4=CN=CN4)Br
Procedure, shortened: as §1

[8] = compound: C1CN(CCC1(CC2=CC=C(C=C2)Cl)N)C3=NC=NC4=C3C=CN4
Procedure, shortened: as §1

IRAK-1-4 Inhibitor I = compound: C1COCCN1CCN2C3=CC=CC=C3N=C2NC(=O)C4=CC(=CC=C4)[N+](=O)[O-] [IRAK-1-4 Inhibitor I]
Procedure, shortened: as §1

ibrutinib = compound: C=CC(=O)N1CCC[C@@H](n2nc(-c3ccc(Oc4ccccc4)cc3)c3c(N)ncnc32)C1 [ibrutinib]
Procedure, shortened: as §1

[9] = compound: CC(=O)c1cnc2ccc(-c3cc(Cl)c(O)c(Cl)c3)nc2c1N[C@H]1CC[C@H](CN(C)C)CC1
Procedure, shortened: as §1

ralimetinib = compound: CC(C)(C)Cn1c(N)nc2ccc(-c3[nH]c(C(C)(C)C)nc3-c3ccc(F)cc3)nc21 [ralimetinib]
Procedure, shortened: as §1

[10] = compound: CC(C)(O)CC(=O)NCCn1ccc2ncnc(Nc3ccc(Oc4cccc(C(F)(F)F)c4)c(Cl)c3)c21
Procedure, shortened: as §1

[11] = compound: CC(C)C1=C2N=C(C=C(N2N=C1)NCC3=CC=CC=C3)NCCCCCCN
Procedure, shortened: as §1

[12] = compound: CC1=C(C(CC(=O)N1)C2=CC=C(C=C2)C(F)(F)F)C(=O)NC3=C(C=C4C(=C3)C=NN4)F
Procedure, shortened: as §1

[13] = compound: CC1=C(C2=C(C=C1)C(=O)C3=CC=CC=C3N2CCCN)C
Procedure, shortened: as §1

[14] = compound: CC1=C(C=C(C=C1)NC(=O)C2=CC(=CC=C2)C(C)(C)C#N)NC3=CC4=C(C=C3)N=CN(C4=O)C
Procedure, shortened: as §1

[15] = compound: CC1=C(C=C(C=C1)NC(=O)C2=CC(=CC=C2)N(C)C)NC(=O)C3=CC=C(C=C3)O
Procedure, shortened: as §1

[16] = compound: CC1=CC=C(C=C1)SC2=C3C=C(SC3=CN=C2)C(=O)N
Procedure, shortened: as §1

Measured: log2 fold change

TLK2 isoform 2 (UniProt Q86UE8)
inactive: erlotinib -0.071 | [1] -0.076 | [2] 0.054 | [3] -0.006 | [4] 0.014 | [5] 0.001 | [6] 0.171 | [7] -0.012 | [8] 0.021 | IRAK-1-4 Inhibitor I -0.058 | ibrutinib -0.021 | [9] 0.104 | ralimetinib 0.035 | [10] -0.018 | [11] 0.007 | [12] -0.009 | [13] 0.051 | [14] 0 | [15] 0.025 | [16] -0.055

TLN2 (UniProt Q9Y4G6)
inactive: erlotinib -0.015 | [1] -0.038 | [2] 0.018 | [3] -0.01 | [4] -0.021 | [5] 0.007 | [6] 0.036 | [7] 0 | [8] 0.012 | IRAK-1-4 Inhibitor I -0.004 | ibrutinib -0.016 | [9] -0.018 | ralimetinib 0.002 | [10] -0.009 | [11] 0.004 | [12] -0.049 | [13] -0.001 | [14] 0.008 | [15] -0.002 | [16] 0

TIMM17B (UniProt O60830)
inactive: erlotinib 0.035 | [1] 0.02 | [2] 0.102 | [3] 0.026 | [4] 0 | [5] -0.02 | [6] -0.031 | [7] -0.058 | [8] 0.011 | IRAK-1-4 Inhibitor I -0.001 | ibrutinib -0.011 | [9] 0.001 | ralimetinib -0.043 | [10] -0.022 | [11] -0.02 | [12] -0.006 | [13] -0.071 | [14] 0.003 | [15] 0.005 | [16] -0.039

TIMM23 (UniProt O14925)
inactive: erlotinib -0.092 | [1] 0.065 | [2] -0.008 | [3] 0.001 | [4] -0.035 | [5] -0.011 | [6] 0.001 | [7] -0.099 | [8] 0.031 | IRAK-1-4 Inhibitor I 0.003 | ibrutinib -0.053 | [9] -0.029 | ralimetinib 0.008 | [10] -0.067 | [11] 0.026 | [12] -0.054 | [13] -0.008 | [14] 0.002 | [15] 0.012 | [16] -0.02

TIAL1 isoform 2 (UniProt Q01085)
inactive: erlotinib 0.015 | [1] -0.001 | [2] 0.023 | [3] -0.015 | [4] -0.019 | [5] -0.035 | [6] 0.059 | [7] 0 | [8] 0.017 | IRAK-1-4 Inhibitor I 0.058 | ibrutinib 0.018 | [9] -0.004 | ralimetinib -0.063 | [10] -0.001 | [11] -0.001 | [12] 0.049 | [13] 0.015 | [14] -0.167 | [15] -0.06 | [16] -0.012

THYN1 (UniProt Q9P016)
inactive: erlotinib 0.016 | [1] -0.05 | [2] -0.017 | [3] 0.054 | [4] -0.052 | [5] 0 | [6] -0.007 | [7] 0.056 | [8] -0.01 | IRAK-1-4 Inhibitor I -0.06 | ibrutinib -0.07 | [9] -0.006 | ralimetinib -0.021 | [10] 0.025 | [11] 0.081 | [12] -0.005 | [13] 0.014 | [14] -0.038 | [15] -0.007 | [16] 0.022

TM9SF4 (UniProt Q92544)
inactive: erlotinib -0.009 | [1] -0.002 | [2] -0.048 | [3] 0.052 | [4] -0.015 | [5] -0.022 | [6] -0.151 | [7] -0.021 | [8] -0.012 | IRAK-1-4 Inhibitor I 0.015 | ibrutinib -0.005 | [9] -0.014 | ralimetinib -0.011 | [10] -0.045 | [11] 0.002 | [12] 0.023 | [13] -0.01 | [14] -0.022 | [15] -0.001 | [16] -0.013

THAP12 (UniProt O43422)
inactive: erlotinib 0.001 | [1] -0.001 | [2] 0.014 | [3] 0.044 | [4] -0.008 | [5] -0.02 | [6] -0.063 | [7] -0.005 | [8] -0.008 | IRAK-1-4 Inhibitor I -0.023 | ibrutinib -0.014 | [9] -0.003 | ralimetinib 0.012 | [10] -0.049 | [11] -0.004 | [12] 0.018 | [13] 0 | [14] 0.042 | [15] 0.04 | [16] 0.003

TMEM11 (UniProt P17152)
inactive: erlotinib 0.021 | [1] 0.048 | [2] -0.051 | [3] 0.012 | [4] -0.005 | [5] -0.023 | [6] 0.021 | [7] -0.067 | [8] 0.033 | IRAK-1-4 Inhibitor I 0.145 | ibrutinib -0.022 | [9] 0.015 | ralimetinib 0.03 | [10] -0.058 | [11] -0.052 | [12] 0.037 | [13] 0.076 | [14] -0.107 | [15] -0.089 | [16] 0.057

TLK1 isoform 2 (UniProt Q9UKI8)
inactive: erlotinib 0 | [1] -0.029 | [2] -0.024 | [3] -0.013 | [4] -0.007 | [5] -0.016 | [6] 0.145 | [7] 0.007 | [8] 0.099 | IRAK-1-4 Inhibitor I 0.023 | ibrutinib 0.017 | [9] 0.094 | ralimetinib 0.053 | [10] 0.01 | [11] 0.012 | [12] -0.002 | [13] 0.038 | [14] -0.013 | [15] -0.037 | [16] 0

THOC1 (UniProt Q96FV9)
inactive: erlotinib -0.025 | [1] -0.022 | [2] -0.033 | [3] 0.037 | [4] -0.001 | [5] -0.012 | [6] -0.032 | [7] 0.022 | [8] -0.04 | IRAK-1-4 Inhibitor I 0.006 | ibrutinib -0.003 | [9] -0.002 | ralimetinib -0.017 | [10] 0.018 | [11] 0.002 | [12] -0.003 | [13] -0.007 | [14] -0.004 | [15] 0.01 | [16] 0.017

TMEM109 (UniProt Q9BVC6)
inactive: erlotinib 0.004 | [1] 0.027 | [2] 0.021 | [3] -0.01 | [4] 0.017 | [5] -0.009 | [6] 0.005 | [7] 0.032 | [8] 0 | IRAK-1-4 Inhibitor I 0.043 | ibrutinib 0.03 | [9] -0.027 | ralimetinib 0.039 | [10] 0.023 | [11] -0.014 | [12] -0.002 | [13] -0.019 | [14] 0.02 | [15] 0.035 | [16] -0.005

TMEM186 (UniProt Q96B77)
inactive: erlotinib 0.033 | [1] -0.047 | [2] -0.045 | [3] -0.029 | [4] 0.002 | [5] 0.04 | [6] 0.041 | [7] -0.019 | [8] 0.036 | IRAK-1-4 Inhibitor I -0.046 | ibrutinib 0.023 | [9] -0.009 | ralimetinib 0.002 | [10] -0.051 | [11] -0.041 | [12] -0.022 | [13] -0.057 | [14] 0.035 | [15] -0.032 | [16] -0.027

Looked up one by one from above, 2 records:
THOC1 (UniProt Q96FV9)
inactive: erlotinib -0.025 | [1] -0.022 | [2] -0.033 | [3] 0.037 | [4] -0.001 | [5] -0.012 | [6] -0.032 | [7] 0.022 | [8] -0.04 | IRAK-1-4 Inhibitor I 0.006 | ibrutinib -0.003 | [9] -0.002 | ralimetinib -0.017 | [10] 0.018 | [11] 0.002 | [12] -0.003 | [13] -0.007 | [14] -0.004 | [15] 0.01 | [16] 0.017

TMEM109 (UniProt Q9BVC6)
inactive: erlotinib 0.004 | [1] 0.027 | [2] 0.021 | [3] -0.01 | [4] 0.017 | [5] -0.009 | [6] 0.005 | [7] 0.032 | [8] 0 | IRAK-1-4 Inhibitor I 0.043 | ibrutinib 0.03 | [9] -0.027 | ralimetinib 0.039 | [10] 0.023 | [11] -0.014 | [12] -0.002 | [13] -0.019 | [14] 0.02 | [15] 0.035 | [16] -0.005

Additional entries.

TMEM14C (UniProt Q9P0S9)
inactive: erlotinib 0.027 | [1] -0.201 | [2] 0.046 | [3] -0.011 | [4] -0.039 | [5] 0.022 | [6] 0.063 | [7] -0.177 | [8] -0.042 | IRAK-1-4 Inhibitor I 0.064 | ibrutinib 0.04 | [9] 0.085 | ralimetinib 0.129 | [10] -0.077 | [11] -0.135 | [12] -0.047 | [13] -0.146 | [14] 0.048 | [15] 0.007 | [16] 0.152

TMEM135 (UniProt Q86UB9)
inactive: erlotinib 0.03 | [1] -0.186 | [2] -0.015 | [3] 0.171 | [4] 0.015 | [5] -0.069 | [6] -0.217 | [7] 0 | [8] -0.005 | IRAK-1-4 Inhibitor I 0.057 | ibrutinib 0.037 | [9] 0.022 | ralimetinib 0.028 | [10] 0.082 | [11] 0.011 | [12] 0.011 | [13] 0.028 | [14] -0.04 | [15] 0.06 | [16] 0.013

TICAM2 isoform 2 (UniProt Q86XR7)
inactive: erlotinib 0.035 | [1] 0.008 | [2] -0.017 | [3] 0.018 | [4] 0.019 | [5] 0.027 | [6] -0.024 | [7] 0.007 | [8] -0.007 | IRAK-1-4 Inhibitor I 0.029 | ibrutinib 0.017 | [9] 0.013 | ralimetinib -0.048 | [10] 0.016 | [11] 0.032 | [12] 0.015 | [13] 0.045 | [14] -0.007 | [15] 0.017 | [16] -0.006
